Source: paper PMC2362378
For at least one entry, the source does not settle the construct or the ends of the probe. Where cells or extracts were used, other partners may take part. At least one verdict was read from the data and is not stated in words by the source.

Amino acid sequences for entries named in this document (tags omitted). Residues count along the entry.
UniProt P42224, 2-750: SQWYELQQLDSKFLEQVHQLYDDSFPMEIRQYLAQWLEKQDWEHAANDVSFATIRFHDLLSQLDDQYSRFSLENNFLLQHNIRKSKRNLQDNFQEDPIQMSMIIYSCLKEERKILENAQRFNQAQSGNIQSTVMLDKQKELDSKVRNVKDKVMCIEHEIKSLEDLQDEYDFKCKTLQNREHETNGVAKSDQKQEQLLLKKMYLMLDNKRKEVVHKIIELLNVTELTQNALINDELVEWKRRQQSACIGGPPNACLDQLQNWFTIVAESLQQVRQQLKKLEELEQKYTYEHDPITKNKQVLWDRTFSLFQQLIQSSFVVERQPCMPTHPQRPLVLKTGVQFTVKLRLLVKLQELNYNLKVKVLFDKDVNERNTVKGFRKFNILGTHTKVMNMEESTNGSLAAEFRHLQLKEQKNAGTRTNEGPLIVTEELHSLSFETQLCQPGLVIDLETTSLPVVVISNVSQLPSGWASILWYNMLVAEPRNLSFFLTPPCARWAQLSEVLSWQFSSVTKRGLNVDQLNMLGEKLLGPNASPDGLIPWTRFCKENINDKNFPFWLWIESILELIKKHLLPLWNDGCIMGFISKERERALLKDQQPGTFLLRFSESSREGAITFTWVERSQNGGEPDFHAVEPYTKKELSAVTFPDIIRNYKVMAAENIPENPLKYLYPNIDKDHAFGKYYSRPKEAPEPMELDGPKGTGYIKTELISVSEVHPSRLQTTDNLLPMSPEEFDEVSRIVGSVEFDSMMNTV

Target: Stat1 (IFN-gamma-activated, in cell extract) (UniProt P42224)
Assay: EMSA
Settings: 40 mM HEPES pH 7.9, 100 mM NaCl, 2 mM MgCl2, 2 mM DTT, 8% Ficoll, 50 ug/ml poly(dI-dC), 20 ul, room temperature 20 min, 4% gel in 0.25x TBE at 4 C, protein in an extract, label: 32P end label

Measured: binding result

GTGCATTTCCCGTAAATCTTGTCTACA (double strand) [M67-SIE]
binds: A431 extract, IFN-gamma treated (positive control) | PE01 extract, IFN-gamma treated | SKOV-3 extract, IFN-gamma treated, stronger than PE01
